# The list does not hold the whole screen: it gathers tests that were run many times, whatever their T/C, doses with no T/C, and many T/C values between a quarter and a half above the control. Further doses and runs are listed elsewhere. T/C is the treated group as % of the vehicle group. Some entries give survivors of the animals treated and no T/C: the source holds a T/C of zero for them, seemingly a mark for toxic or unscored doses. Some doses without a T/C left all or most animals alive at the check, yet need not have been tolerated: the source hardly ever lists a survival T/C far under the control, and the zero likely stands for such cases as well. Counts of survivors are from the toxicity check (mostly the fifth day) where no day follows; animals may have died later. Schedules are NCI's codes, read here as Q, the interval in days (D) or hours (H), X, the number of doses. For survival time, this PubChem deposit counts one and a half times the control or more as active, and values a quarter to a half above the control carry no call in these data; other NCI protocols may use other cut-offs. Some entries were tested several times; the results are listed from low to high.
# System: CD2F1 mice, L1210 leukemia ip, survival T/C
# Test: NCI In Vivo Anticancer Drug Screen. Data for tumor model L1210 Leukemia (intraperitoneal) in CD2F1 (CDF1) mice
# Details: higher T/C = longer survival
# Method in brief: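 Transplantable tumor in mice; compound-treated vs vehicle-treated groups. Read-out = treated/control ratio of the measured endpoint.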
# [1] = T/C endpoint: mean survival time, dose: 200.0 mg/kg/injection, schedule: Q01DX001 (ip), vehicle: saline
# [2] = T/C endpoint: mean survival time, dose: 400.0 mg/kg/injection, schedule: Q01DX001 (ip), vehicle: saline
# [3] = T/C endpoint: mean survival time, dose: 400.0 mg/kg/injection, schedule: Q04DX003 (ip), vehicle: saline with Tween-80
smiles,measurement,setting,value
O=S(=O)(O)c1cc2cc(S(=O)(=O)O)c(O)cc2cc1O.[NH-]C1CCCCC1[NH-].[Pt+2],T/C,"T/C endpoint: median survival time, dose: 25.0 mg/kg/injection, schedule: Q04DX003 (ip), vehicle: saline",125 and 131 % of control
same,T/C,"T/C endpoint: median survival time, dose: 50.0 mg/kg/injection, schedule: Q04DX003 (ip), vehicle: saline",147 % of control
CN(Cc1cnc2nc(N)nc(N)c2n1)c1ccc(C(=O)NC(CCC(=O)O)C(=O)NC(CCC(=O)O)C(=O)O)cc1 (stereo unspecified),T/C,"T/C endpoint: mean survival time, dose: 10.0 mg/kg/injection, schedule: Q01DX009 (ip), vehicle: sodium bicarbonate",127 % of control
same,T/C,"T/C endpoint: mean survival time, dose: 50.0 mg/kg/injection, schedule: Q01DX009 (ip), vehicle: sodium bicarbonate",131 % of control
CC1CN1C(=O)Nc1cccc2c(NC(=O)N3CC3C)cccc12 (stereo unspecified),T/C,"T/C endpoint: mean survival time, dose: 18.7 mg/kg/injection, schedule: Q01DX009 (ip), vehicle: Klucel (hydroxypropylcellulose) (HPC)",140 % of control
COc1cc(C[C@H]2c3cc(OC)c(OC)cc3CCN2C)c(Oc2cc3c(cc2OC)-c2c(OC)c(OC)cc4c2[C@H](C3)N(C)CC4)cc1OC,survivor count,[1],10 of 10
same,survivor count,"T/C endpoint: mean survival time, dose: 400.0 mg/kg/injection, schedule: Q04DX003 (ip), vehicle: saline",10 of 10
Cc1cc(C)c2ccc(Cl)nc2n1,survivor count,"T/C endpoint: mean survival time, dose: 150.0 mg/kg/injection, schedule: Q01DX001 (ip), vehicle: other",0 of 6
same,survivor count,"T/C endpoint: mean survival time, dose: 300.0 mg/kg/injection, schedule: Q01DX001 (ip), vehicle: other",0 of 6
CCCCN(C)N=Nc1ccccc1C(=O)O,survivor count,"T/C endpoint: mean survival time, dose: 100.0 mg/kg/injection, schedule: Q01DX009 (ip), vehicle: other",3 of 6
same,survivor count,"T/C endpoint: mean survival time, dose: 200.0 mg/kg/injection, schedule: Q01DX009 (ip), vehicle: other",0 of 6
same,survivor count,"T/C endpoint: mean survival time, dose: 400.0 mg/kg/injection, schedule: Q01DX009 (ip), vehicle: other",0 of 6
C=CC12CCCC[N+]1(C)CCC2 (stereo unspecified),survivor count,"T/C endpoint: mean survival time, dose: 100.0 mg/kg/injection, schedule: Q01DX001 (ip), vehicle: saline",0 of 6
same,survivor count,[1],0 of 6
same,survivor count,[2],0 of 6
COC1C(C)OC(OC2CC(C)(O)C(C(=O)O)c3cc4c(c(O)c32)C(=O)c2c(O)cc3c(c2C4=O)OC2OC3(C)C(O)C(N(C)C)C2O)C(OC)C1(C)OC (stereo unspecified),survivor count,"T/C endpoint: mean survival time, dose: 40.0 mg/kg/injection, schedule: Q01DX009 (ip), vehicle: other",5 of 6
CO[C@@]12[C@@H]3N[C@@H]3CN1C1=C(C(=O)C(NCCc3ccc(O)cc3)=C(C)C1=O)[C@@H]2COC(N)=O,T/C,"T/C endpoint: mean survival time, dose: 12.0 mg/kg/injection, schedule: Q01DX001 (ip), vehicle: water",126 % of control
same,T/C,"T/C endpoint: mean survival time, dose: 24.0 mg/kg/injection, schedule: Q01DX001 (ip), vehicle: water",125 and 132 % of control
CN(C)/N=C(\CBr)c1ccc([N+](=O)[O-])cc1,survivor count,[2],3 of 6
CN(N=O)C(=O)NCC1OC(OC2(CNC(=O)N(C)N=O)OC(CNC(=O)N(C)N=O)C(O)C2O)C(O)C(O)C1O (stereo unspecified),T/C,"T/C endpoint: mean survival time, dose: 200.0 mg/kg/injection, schedule: Q01DX009 (ip), vehicle: water",137 % of control
Cc1cc(C(C(N)=O)c2ccccc2)ccc1N(CCCl)CCCl (stereo unspecified),T/C,"T/C endpoint: mean survival time, dose: 133.0 mg/kg/injection, schedule: Q01DX001 (ip), vehicle: other",137 % of control
same,survivor count,"T/C endpoint: mean survival time, dose: 200.0 mg/kg/injection, schedule: Q01DX001 (ip), vehicle: other",6 of 6
same,survivor count,"T/C endpoint: mean survival time, dose: 600.0 mg/kg/injection, schedule: Q01DX001 (ip), vehicle: other",5 of 6
O=C(Nc1c(Oc2ccc(Cl)cc2)ccc(Cl)c1S(=O)(=O)O)Nc1c(Oc2ccc(Cl)c(Cl)c2)ccc(Cl)c1S(=O)(=O)O,survivor count,[2],2 of 6
CCC1(O)C(=O)OCc2c1cc1n(c2=O)Cc2cc3ccc(C)cc3nc2-1 (stereo unspecified),T/C,"T/C endpoint: median survival time, dose: 20.0 mg/kg/injection, schedule: Q04DX002 (ip), vehicle: saline with Tween-80",126 % of control
same,T/C,"T/C endpoint: median survival time, dose: 40.0 mg/kg/injection, schedule: Q04DX002 (ip), vehicle: saline with Tween-80",136 % of control
same,T/C,"T/C endpoint: median survival time, dose: 80.0 mg/kg/injection, schedule: Q04DX002 (ip), vehicle: saline with Tween-80",133 % of control
Cc1ccc2ncccc2c1[N+](=O)[O-],survivor count,[3],2 of 6
N#CC12CC3CC(CC(C3)C1)C2,survivor count,"T/C endpoint: mean survival time, dose: 100.0 mg/kg/injection, schedule: Q04DX003 (ip), vehicle: saline with Tween-80",0 of 6
same,survivor count,"T/C endpoint: mean survival time, dose: 200.0 mg/kg/injection, schedule: Q04DX003 (ip), vehicle: saline with Tween-80",0 of 6
same,survivor count,[3],0 of 6
